Reference: paper PMC5880400, “FIN219/JAR1 and cryptochrome1 antagonize each other to modulate photomorphogenesis under blue light in Arabidopsis” (PLoS Genetics, 2018)
These are yes or no findings as the source states them, for the method shown. Binding calls can cover weak binding; strength is not graded here. For some of these results: Tags and fused reporters may be left off the sequences shown. For some of these results: In cells and extracts the contact can be indirect.

Experiments:
[1] = target: T1, GST-FIN219 (FIN219/JAR1 full-length, recombinant) (Arabidopsis thaliana) (UniProt Q9SKE2); assay: pull-down; 5 ug purified recombinant protein mixed in 500 ul interaction buffer (50 mM Tris-HCl pH 7.5, 10 mM MgCl2, 100 mM NaCl, 1 mM PMSF, 0.04% NP-40), 4°C 1 h; GST fusions held on GSH sepharose; blot probed with antibodies against the CBP-tag; both purified
T1 sequence: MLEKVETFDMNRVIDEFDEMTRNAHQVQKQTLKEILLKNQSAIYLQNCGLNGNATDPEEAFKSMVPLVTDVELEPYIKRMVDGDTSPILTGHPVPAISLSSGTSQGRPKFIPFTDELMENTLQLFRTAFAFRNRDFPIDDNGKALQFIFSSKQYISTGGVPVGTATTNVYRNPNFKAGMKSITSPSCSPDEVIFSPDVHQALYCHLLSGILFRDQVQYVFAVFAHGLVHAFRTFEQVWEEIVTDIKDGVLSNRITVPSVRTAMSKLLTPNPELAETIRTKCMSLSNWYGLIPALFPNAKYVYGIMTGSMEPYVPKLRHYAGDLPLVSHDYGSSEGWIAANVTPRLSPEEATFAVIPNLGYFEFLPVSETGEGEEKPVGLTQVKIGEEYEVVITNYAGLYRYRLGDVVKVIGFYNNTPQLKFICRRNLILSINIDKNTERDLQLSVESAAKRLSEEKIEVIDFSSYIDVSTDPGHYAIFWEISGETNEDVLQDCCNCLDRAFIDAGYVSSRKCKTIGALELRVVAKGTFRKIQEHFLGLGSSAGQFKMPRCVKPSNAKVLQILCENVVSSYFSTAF

[2] = target: T2, YC-FIN219 (full-length FIN219 in 35p-YFP-C84/pRTL2) (Arabidopsis thaliana) (UniProt Q9SKE2); assay: split reporter; BiFC (YFP-N155 / YFP-C84) in Arabidopsis Col-0 mesophyll protoplasts in the dark, without or with 50 uM MeJA
T2 sequence: T1 sequence

[3] = target: T2, YC-FIN219 (full-length FIN219 in 35p-YFP-C84/pRTL2) (Arabidopsis thaliana); assay: split reporter; BiFC (YFP-N155 / YFP-C84) in Arabidopsis Col-0 mesophyll protoplasts under blue light (2.2 umol m^-2 s^-1), without or with 50 uM MeJA
[4] = target: T3, FIN219/JAR1, endogenous in Arabidopsis seedlings (Arabidopsis thaliana (endogenous in seedlings)) (UniProt Q9SKE2); assay: co-IP; 2 mg total protein of GUS-CCT1 transgenic or wild-type Col-0 seedlings grown in the dark or blue light with or without MeJA; precipitated with FIN219 monoclonal antibodies, 4°C 4 h; probed with GUS, COP1 or CRY1 polyclonal antibodies
T3 sequence: T1 sequence

Substance: CBP-CCT1 (C terminus of CRY1, recombinant) (Arabidopsis thaliana) (domain or fragment)
- binding [1]: binds

Substance: CCT1 (C terminus of CRY1) of the BiFC assay (Arabidopsis thaliana) (domain or fragment)
- binding [2]: binds
- binding [3]: binds

Substance: GUS-CCT1 fusion protein (C terminus of CRY1 fused to GUS) (Arabidopsis thaliana) (domain or fragment)
- binding [4]: binds
